In doi:10.1101/2022.06.16.496440 one finds binding data, which are given here for 6 molecules.

These are yes or no findings as the source states them, for the method shown. In cells and extracts the contact can be indirect. For some assays here: A result given as binding can be weak or reduced; the word gives no strength. For some assays here: Where a sequence is shown, tags or fusion partners need not be part of it.

Assay [1] addresses T1, SAG101-nVenus (Arabidopsis) (UniProt Q4F883).
T1 sequence: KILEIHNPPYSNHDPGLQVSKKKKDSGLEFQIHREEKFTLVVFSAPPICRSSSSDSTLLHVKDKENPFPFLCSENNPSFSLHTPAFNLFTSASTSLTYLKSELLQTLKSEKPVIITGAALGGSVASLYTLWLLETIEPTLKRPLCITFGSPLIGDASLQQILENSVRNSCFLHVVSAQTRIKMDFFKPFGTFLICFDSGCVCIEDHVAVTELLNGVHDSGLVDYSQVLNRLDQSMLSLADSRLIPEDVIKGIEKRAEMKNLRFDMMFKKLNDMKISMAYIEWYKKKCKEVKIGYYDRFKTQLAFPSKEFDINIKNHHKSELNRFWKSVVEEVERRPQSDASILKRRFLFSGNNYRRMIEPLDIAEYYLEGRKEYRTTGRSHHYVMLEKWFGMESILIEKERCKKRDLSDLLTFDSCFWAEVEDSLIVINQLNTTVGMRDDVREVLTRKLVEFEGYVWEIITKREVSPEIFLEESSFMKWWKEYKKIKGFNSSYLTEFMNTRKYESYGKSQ
Put plainly: split reporter.

In assay [2] the target is T2, AtEDS1-nVenus (Arabidopsis) (UniProt Q9XF23).
T2 sequence: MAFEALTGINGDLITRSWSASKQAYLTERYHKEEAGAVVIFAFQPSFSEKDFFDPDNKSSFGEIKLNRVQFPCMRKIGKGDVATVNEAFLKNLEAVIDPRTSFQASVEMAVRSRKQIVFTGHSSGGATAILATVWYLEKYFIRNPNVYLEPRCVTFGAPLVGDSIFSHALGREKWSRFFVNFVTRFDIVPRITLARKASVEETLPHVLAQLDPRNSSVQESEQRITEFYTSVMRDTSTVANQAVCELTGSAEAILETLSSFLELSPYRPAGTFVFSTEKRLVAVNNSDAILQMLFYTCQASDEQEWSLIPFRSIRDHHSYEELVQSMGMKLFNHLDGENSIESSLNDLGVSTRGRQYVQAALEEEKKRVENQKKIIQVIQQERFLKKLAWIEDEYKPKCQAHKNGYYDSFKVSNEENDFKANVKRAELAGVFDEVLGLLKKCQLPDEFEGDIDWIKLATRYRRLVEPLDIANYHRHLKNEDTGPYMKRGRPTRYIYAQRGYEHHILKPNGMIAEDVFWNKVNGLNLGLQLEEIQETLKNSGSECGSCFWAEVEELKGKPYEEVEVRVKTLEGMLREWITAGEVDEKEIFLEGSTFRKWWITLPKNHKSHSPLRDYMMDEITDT
Put plainly: split reporter.

Assay [3] addresses T2, AtEDS1-nVenus (Arabidopsis). Description: condition: only cell-surface receptor activation without effector delivery.
The target in assay [4] is NRG1.2-FLAG (Arabidopsis). Put plainly: co-IP.
Assay [5] has as its target NRG1.2-FLAG (Arabidopsis). Description: co-IP. The source holds these as a separate data set.
In assay [6] the target is NRG1.2-FLAG (Arabidopsis). Description: co-IP + native gel or EMSA. A general note: Mobility shift assays separate free from complexed probe on a gel.
Assay [7] deals with AtNRG1.2^EEAA-FLAG (Arabidopsis). Description: condition: only co-expressed with RBA1 E86A in place of RBA1.
For assay [8] the target is unchanged. Description: co-IP.

As for NRG1.1-cCFP (Arabidopsis), the binding entry in assay [1] is “binds”.
AtNRG1.1^EEAA-cCFP (Arabidopsis): in assay [2], the binding entry is on record as “binds”.
Turning to AtNRG1.1-cCFP (Arabidopsis), the figures for the binding entry in assay [2] and in assay [3] were “binds” and “no binding”, respectively.

B1: EDS1-V5 (protein, UniProt Q9XF23 1-623)
chain: MAFEALTGINGDLITRSWSASKQAYLTERYHKEEAGAVVIFAFQPSFSEKDFFDPDNKSSFGEIKLNRVQFPCMRKIGKGDVATVNEAFLKNLEAVIDPRTSFQASVEMAVRSRKQIVFTGHSSGGATAILATVWYLEKYFIRNPNVYLEPRCVTFGAPLVGDSIFSHALGREKWSRFFVNFVTRFDIVPRITLARKASVEETLPHVLAQLDPRNSSVQESEQRITEFYTSVMRDTSTVANQAVCELTGSAEAILETLSSFLELSPYRPAGTFVFSTEKRLVAVNNSDAILQMLFYTCQASDEQEWSLIPFRSIRDHHSYEELVQSMGMKLFNHLDGENSIESSLNDLGVSTRGRQYVQAALEEEKKRVENQKKIIQVIQQERFLKKLAWIEDEYKPKCQAHKNGYYDSFKVSNEENDFKANVKRAELAGVFDEVLGLLKKCQLPDEFEGDIDWIKLATRYRRLVEPLDIANYHRHLKNEDTGPYMKRGRPTRYIYAQRGYEHHILKPNGMIAEDVFWNKVNGLNLGLQLEEIQETLKNSGSECGSCFWAEVEELKGKPYEEVEVRVKTLEGMLREWITAGEVDEKEIFLEGSTFRKWWITLPKNHKSHSPLRDYMMDEITDT
As to B1, the binding entry in assay [4] is recorded as “binds weakly”; in assay [5], “binds”; in assay [6] it was “binds”.

B2: AtEDS1-V5 (protein, UniProt Q9XF23 1-623)
chain: MAFEALTGINGDLITRSWSASKQAYLTERYHKEEAGAVVIFAFQPSFSEKDFFDPDNKSSFGEIKLNRVQFPCMRKIGKGDVATVNEAFLKNLEAVIDPRTSFQASVEMAVRSRKQIVFTGHSSGGATAILATVWYLEKYFIRNPNVYLEPRCVTFGAPLVGDSIFSHALGREKWSRFFVNFVTRFDIVPRITLARKASVEETLPHVLAQLDPRNSSVQESEQRITEFYTSVMRDTSTVANQAVCELTGSAEAILETLSSFLELSPYRPAGTFVFSTEKRLVAVNNSDAILQMLFYTCQASDEQEWSLIPFRSIRDHHSYEELVQSMGMKLFNHLDGENSIESSLNDLGVSTRGRQYVQAALEEEKKRVENQKKIIQVIQQERFLKKLAWIEDEYKPKCQAHKNGYYDSFKVSNEENDFKANVKRAELAGVFDEVLGLLKKCQLPDEFEGDIDWIKLATRYRRLVEPLDIANYHRHLKNEDTGPYMKRGRPTRYIYAQRGYEHHILKPNGMIAEDVFWNKVNGLNLGLQLEEIQETLKNSGSECGSCFWAEVEELKGKPYEEVEVRVKTLEGMLREWITAGEVDEKEIFLEGSTFRKWWITLPKNHKSHSPLRDYMMDEITDT
Turning to B2, the binding entry is “no binding” in assay [7] and “binds” in assay [8].

B3: AtSAG101-Myc (protein, UniProt Q4F883 28-537)
chain: KILEIHNPPYSNHDPGLQVSKKKKDSGLEFQIHREEKFTLVVFSAPPICRSSSSDSTLLHVKDKENPFPFLCSENNPSFSLHTPAFNLFTSASTSLTYLKSELLQTLKSEKPVIITGAALGGSVASLYTLWLLETIEPTLKRPLCITFGSPLIGDASLQQILENSVRNSCFLHVVSAQTRIKMDFFKPFGTFLICFDSGCVCIEDHVAVTELLNGVHDSGLVDYSQVLNRLDQSMLSLADSRLIPEDVIKGIEKRAEMKNLRFDMMFKKLNDMKISMAYIEWYKKKCKEVKIGYYDRFKTQLAFPSKEFDINIKNHHKSELNRFWKSVVEEVERRPQSDASILKRRFLFSGNNYRRMIEPLDIAEYYLEGRKEYRTTGRSHHYVMLEKWFGMESILIEKERCKKRDLSDLLTFDSCFWAEVEDSLIVINQLNTTVGMRDDVREVLTRKLVEFEGYVWEIITKREVSPEIFLEESSFMKWWKEYKKIKGFNSSYLTEFMNTRKYESYGKSQ
Turning to B3, the binding entry in assay [7] is given as “no binding”; in assay [8], “binds”.
